The source of these data is US7977379B2, “Method for angiogenesis inhibition or immunostimulation” (priority 2002, dated 2011).

This assay has as its system angiogenesis induced by means of MATRIGEL matrix (heparin, a-FGF). Briefly: Test Example 4: angiogenesis induced by MATRIGEL matrix (same method as test example 1). The class given is in vivo, C57BL/6 female mice. The conditions noted are these: MATRIGEL weight and hemoglobin vs control group. As for the experimental part: More specifically, normal mice (5 mice/1 group) were used after breeding C57BL/6 female mice (5 week old, purchased from Charles River JAPAN, Inc.) preliminarily for one week. While cooling test materials as shown in the following, each of the test materials 0.5 ml were transplanted to subcutaneous of abdomen of the mice. MATRIGEL was taken out on the sixth day after transplantation, and state of angiogenesis was observed. In addition, the MATRIGEL was freeze-dried, and it was weighed. […] Group 0 of nothing addition: MATRIGEL Control group: […] Group 1 of test material addition: […] Group 3 of test material addition: […] Group 4 of test material addition: […] Group 5 of test material addition: […] Group 6 of test material addition: […] Group 7 of test material addition: […] Group 9 of test material addition: […]

In the case of `NCCCC(=O)O` [gamma aminobutyric acid, reference compound], the “angiogenesis inhibition effect (in words)” value is reported as “not recognized”.
